Laboratory results taken from paper PMC5351991.
Results are given in words; binding and its absence hold for the method and conditions named. Binding seen in cells or lysates may run through a third protein. Some binding calls cover weakened binding; strength is not graded here. Where a sequence is shown, tags or fusion partners need not be part of it.

Target: T1, NIP1;1::35S-SPYNE (NIP1;1 full length fused to the N-terminal YFP fragment) (Arabidopsis thaliana) (UniProt Q8VZW1)
T1 sequence: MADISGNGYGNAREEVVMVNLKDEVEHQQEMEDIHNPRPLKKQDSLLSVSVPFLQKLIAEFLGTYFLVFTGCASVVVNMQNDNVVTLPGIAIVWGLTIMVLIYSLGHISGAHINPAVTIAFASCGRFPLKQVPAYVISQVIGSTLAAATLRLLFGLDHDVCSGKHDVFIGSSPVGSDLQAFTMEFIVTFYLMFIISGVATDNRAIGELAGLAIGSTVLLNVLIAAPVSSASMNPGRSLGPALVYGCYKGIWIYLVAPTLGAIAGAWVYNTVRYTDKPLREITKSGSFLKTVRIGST
Test: split reporter; BiFC with split YFP (SPYNE/SPYCE) in protoplasts of Arabidopsis suspension cultured cells, imaged by confocal microscopy after 16 h at 22°C

B1: CPK31::35S-SPYCE (CPK31 full length fused to the C-terminal YFP fragment) (enzyme, UniProt Q9S9V0 1-484)
chain: MGCYSSKNLKQSKRTILEKPFVDIGKVYILGDELGQGQFGITRKCVEKTSGKTYACKTILKTNLKSREDEEAVKREIRIMKHLSGEPNIVEFKKAYEDRDSVHIVMEYCGGGELFKKIEALSKDGKSYSEKEAVEIIRPIVNVVKNCHYMGVMLRDLKPENFLLSSTDKNATVKAIDFGCSVFIEEGEVHRKFAGSAYYIAPEVLQGKYGKEADIWSAGIILYILLCGKPPFVTEPEAQMFSEIKSAKIDVDSESWKFIDVKAKHLVNRMLNRNPKERISAAEVLGHPWMKDGEASDKPIDGVVLSRLKQFRDMNKLKKVALKVIAANLSEEEIKGLKTLFTNIDTDKSGTITLEELKTGLTRLGSNLSKTEVEQLMEAADVDGNGTIDIDEFISATMHRYRLDRDDHVYQAFQHFDKDNDGHITKEELEMAMKEHGVGDEVSIKQIITEVDTDNDGKINFEEFRTMMRSGSSLQPQRELLPIK
In the case of B1, the binding is reported as “binds”.
